# According to publication PMC7862700:
# The list shows a part of the results, in another mix than the full data. For part of these data: At the low end of the ranking, values are background and their order means little. This is one part of the list. For part of these data: Construct or isoform of the protein are uncertain.
# Columns and labels:
# Test in all cases: DAPPL (digital affinity profiling via proximity ligation, sequencing)
# Settings in all cases: 10 mM Tris-HCl pH 7.5, 50 mM NaCl, 1 mM DTT, 4% glycerol, room temperature, 30 min; GST-TFs on glutathione beads, 16-mer random dsDNA library, 0.1% …; high values mean tight binding; double strand, one strand shown; scale: fold enrichment (6-mer frequency, TF over GST control)
# ELK4 = target: T1, ELK4 (UniProt P28324-2)
# T1 sequence: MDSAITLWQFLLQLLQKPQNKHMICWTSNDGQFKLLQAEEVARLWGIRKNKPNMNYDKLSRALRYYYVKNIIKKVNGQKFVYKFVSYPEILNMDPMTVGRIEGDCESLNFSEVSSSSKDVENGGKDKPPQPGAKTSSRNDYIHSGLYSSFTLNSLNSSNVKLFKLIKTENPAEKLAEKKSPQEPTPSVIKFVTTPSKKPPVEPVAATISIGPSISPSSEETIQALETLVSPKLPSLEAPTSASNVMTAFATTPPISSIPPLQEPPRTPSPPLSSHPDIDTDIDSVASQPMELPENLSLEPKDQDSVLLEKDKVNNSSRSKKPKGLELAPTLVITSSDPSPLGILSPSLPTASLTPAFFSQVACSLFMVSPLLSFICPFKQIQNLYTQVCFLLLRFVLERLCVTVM
# ETV4 = target: T2, ETV4 (UniProt P43268)
# T2 sequence: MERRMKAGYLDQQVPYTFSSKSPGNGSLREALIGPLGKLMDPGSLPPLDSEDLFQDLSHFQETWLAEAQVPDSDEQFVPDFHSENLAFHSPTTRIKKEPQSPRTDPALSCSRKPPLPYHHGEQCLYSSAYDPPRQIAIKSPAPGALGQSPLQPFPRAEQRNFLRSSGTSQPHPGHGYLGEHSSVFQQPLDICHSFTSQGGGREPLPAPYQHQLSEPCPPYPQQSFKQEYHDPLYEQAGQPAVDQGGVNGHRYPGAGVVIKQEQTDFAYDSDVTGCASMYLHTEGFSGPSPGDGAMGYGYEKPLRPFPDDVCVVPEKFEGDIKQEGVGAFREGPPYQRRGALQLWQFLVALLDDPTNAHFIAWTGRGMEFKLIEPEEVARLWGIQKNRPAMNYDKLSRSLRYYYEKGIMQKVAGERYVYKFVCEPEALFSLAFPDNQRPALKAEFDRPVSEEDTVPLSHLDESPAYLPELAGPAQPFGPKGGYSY
# ERG = target: T3, ERG (UniProt P11308)
# T3 sequence: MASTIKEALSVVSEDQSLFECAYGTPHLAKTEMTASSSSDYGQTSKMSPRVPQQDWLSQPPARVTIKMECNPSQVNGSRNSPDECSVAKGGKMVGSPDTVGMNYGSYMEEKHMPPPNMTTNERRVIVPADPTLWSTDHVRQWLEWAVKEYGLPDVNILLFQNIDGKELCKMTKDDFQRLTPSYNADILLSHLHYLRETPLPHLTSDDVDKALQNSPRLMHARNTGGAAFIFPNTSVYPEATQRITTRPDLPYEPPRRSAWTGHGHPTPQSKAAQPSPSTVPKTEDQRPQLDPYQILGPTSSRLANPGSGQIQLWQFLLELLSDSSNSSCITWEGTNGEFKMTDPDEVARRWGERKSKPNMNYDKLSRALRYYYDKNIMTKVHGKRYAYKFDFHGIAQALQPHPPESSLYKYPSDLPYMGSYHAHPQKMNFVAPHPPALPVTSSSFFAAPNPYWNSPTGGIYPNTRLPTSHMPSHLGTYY
Sequence,binding signal (ELK4),binding signal (ETV4),binding signal (ERG)
ATAGAA,1.02,1.07,–
GCCTTT,1.32,1.49,–
ATGGCC,1.48,1.46,–
CCAATC,1.18,1.17,–
GACCTA,1.14,1.13,–
ACTTAC,1.12,1.2,–
TTCCCC,1.48,1.62,–
ACTACC,1.59,1.55,–
ATGATT,1.21,1.24,–
TGTAAA,1.1,1.18,–
GTCCTA,1.13,1.17,–
ATCATA,1.08,1.02,–
AACAGC,1.2,1.11,–
TATTTC,2.24,2.15,–
GCTCTG,0.979,1.21,–
CCCCCA,1.19,1.22,–
CTGAAT,1.31,1.36,–
TCGCTC,1.29,1.25,–
AAACAT,1.49,1.46,–
CGAGCT,0.977,1.09,–
CTCTGT,1.5,1.57,–
GGAACA,0.936,1.04,–
TAAGGT,1.06,1.06,–
TTAATG,1.21,1.22,–
CACTCT,1.58,1.34,–

Sequence,binding signal (ELK4),binding signal (ETV4),binding signal (ERG)
GATGAT,1.26,1.41,–
ATAACT,1.22,1.26,–
GGATCC,1.05,1.21,–
CAAAAC,1.28,1.29,–
GCCTTC,1.64,1.63,–
CAAATT,0.984,1.14,–
ATGTCT,1.07,1.31,–
TTCCTC,2.1,2.17,–
CCCGCA,1.35,1.27,–
TACATT,1.09,1.27,–
AATTCA,1.26,1.31,–
CATCTG,1.39,1.18,–
TATTCA,1.33,1.29,–
CTCCCG,1.46,1.52,–
CTATAC,1.07,1.37,–
CTATGA,0.973,1.13,–
ATTCTG,1.38,1.28,–
TAACAA,1.15,1.21,–
TTAAGC,1.15,1.24,–
CCCGTT,1.06,1.22,–
AATCAA,1.18,1.14,–
CTTAGA,1.24,1.1,1.09
TCTCAA,1.25,1.32,1.28
TTTACT,1.66,1.45,1.43
TAAACA,1.37,1.17,–

Sequence,binding signal (ELK4),binding signal (ETV4),binding signal (ERG)
ATCTGA,1.2,1.16,–
TTATTG,1.43,1.28,–
TTCATA,1.2,1.12,–
CGACTA,1.58,1.39,–
ACATAT,1.22,1.34,–
AACACA,1.42,1.26,–
GTTAAC,1.25,1.17,–
TATAAG,1.08,1.11,–
CTCGTG,0.971,1.06,0.997
CCTGAT,1.5,1.35,–
CTCACT,1.38,1.49,–
GCTTTC,1.26,1.29,–
AATTGT,1.14,1.31,1.28
CACTCG,1.24,1.11,1.15
GCTCCT,1.33,1.45,–
TCTAGT,1.17,1.17,–
TACACC,1.16,1.29,–
AATGCC,1.16,1.08,–
TTAAAC,1.26,1.19,1.25
TTATCA,1.2,1.1,1.06
ATGGAA,1.13,1.21,–
ATCAAT,0.984,1.13,–
ATTGCG,1.14,1.26,–
CTGCGA,1.08,1.3,–

# 20 neighbouring entries out of the list so far:
Sequence,binding signal (ELK4),binding signal (ETV4),binding signal (ERG)
ATCTGA,1.2,1.16,–
TTATTG,1.43,1.28,–
TTCATA,1.2,1.12,–
CGACTA,1.58,1.39,–
ACATAT,1.22,1.34,–
AACACA,1.42,1.26,–
GTTAAC,1.25,1.17,–
TATAAG,1.08,1.11,–
CTCGTG,0.971,1.06,0.997
CCTGAT,1.5,1.35,–
CTCACT,1.38,1.49,–
GCTTTC,1.26,1.29,–
AATTGT,1.14,1.31,1.28
CACTCG,1.24,1.11,1.15
GCTCCT,1.33,1.45,–
TCTAGT,1.17,1.17,–
TACACC,1.16,1.29,–
AATGCC,1.16,1.08,–
TTAAAC,1.26,1.19,1.25
TTATCA,1.2,1.1,1.06
